{"source": "PubChem BioAssay AID504808, Drosophila RNAi Screening Center | 2011", "purpose": "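Fly genes required to hold E2F transcription in check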 (primary screen)", "system": "Drosophila S2 cells", "knock-down reagent": "long dsRNA against Drosophila genes", "detection": "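Firefly luciferase driven by E2F sites, normalised to Renilla luciferase on the same minimal promoter, measured by plate reader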", "reading the numbers": "E2F firefly: higher = more E2F reporter activity; Renilla normaliser: higher = more normaliser reporter signal", "call rule": "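a knock-down counted as active when the firefly/Renilla E2F signal rose above 50%, a threshold chosen arbitrarily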", "note": "The screen tested about 21,000 reagents; this is an unselected part of those that have a named target and a result. Over the whole deposit, 18 (0.084%) got an active call. 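Raw counts without plate normalisation, one of two replicates; the ratio scores behind the calls were not deposited.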 Unmarked entries are inactive. The numbers tell different reagents against one gene apart. A plus sign joins genes that one reagent is predicted to hit. The record does not give: the amount of reagent, the time to read-out."}
{"gene knocked down":"Grip","dsRNA no.":1,"E2F firefly, rep 1":57602,"Renilla normaliser, rep 1":4418}
{"gene knocked down":"Grip","dsRNA no.":2,"E2F firefly, rep 1":97777,"Renilla normaliser, rep 1":6245}
{"gene knocked down":"jet","dsRNA no.":1,"E2F firefly, rep 1":1.01e5,"Renilla normaliser, rep 1":4210}
{"gene knocked down":"CG10959","dsRNA no.":1,"E2F firefly, rep 1":7095,"Renilla normaliser, rep 1":728}
{"gene knocked down":"CG6094","dsRNA no.":1,"E2F firefly, rep 1":75391,"Renilla normaliser, rep 1":3051}
{"gene knocked down":"CG15249","dsRNA no.":1,"E2F firefly, rep 1":1.33e5,"Renilla normaliser, rep 1":6107}
{"gene knocked down":"Skp2 + CG1103","dsRNA no.":1,"E2F firefly, rep 1":80740,"Renilla normaliser, rep 1":3849}
{"gene knocked down":"FANCI","dsRNA no.":1,"E2F firefly, rep 1":1.51e5,"Renilla normaliser, rep 1":5514}
{"gene knocked down":"CG5334","dsRNA no.":1,"E2F firefly, rep 1":1.66e5,"Renilla normaliser, rep 1":6171}
{"gene knocked down":"Qtzl","dsRNA no.":1,"E2F firefly, rep 1":1.32e5,"Renilla normaliser, rep 1":6834}
{"gene knocked down":"CG3961","dsRNA no.":1,"E2F firefly, rep 1":68971,"Renilla normaliser, rep 1":3307}
{"gene knocked down":"CG3961","dsRNA no.":2,"E2F firefly, rep 1":1.50e5,"Renilla normaliser, rep 1":5932}

Reformatted: 2 of the entries above.
gene knocked down | dsRNA no. | E2F firefly, rep 1 | Renilla normaliser, rep 1
CG5334 | 1 | 1.66e5 | 6171
Qtzl | 1 | 1.32e5 | 6834
